Test results from the supplement of paper PMC10849652.
Some of the results follow.

Chains of the proteins cited; added tags and fusions are not shown. Lines headed by an entry give the natural chain unless they say otherwise; changes in a name come on top.
UniProt Q9P0P0: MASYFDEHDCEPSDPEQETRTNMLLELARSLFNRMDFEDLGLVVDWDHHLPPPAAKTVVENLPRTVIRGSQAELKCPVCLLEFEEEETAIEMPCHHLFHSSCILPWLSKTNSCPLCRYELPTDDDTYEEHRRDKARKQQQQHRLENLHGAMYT
UniProt Q9NVN3: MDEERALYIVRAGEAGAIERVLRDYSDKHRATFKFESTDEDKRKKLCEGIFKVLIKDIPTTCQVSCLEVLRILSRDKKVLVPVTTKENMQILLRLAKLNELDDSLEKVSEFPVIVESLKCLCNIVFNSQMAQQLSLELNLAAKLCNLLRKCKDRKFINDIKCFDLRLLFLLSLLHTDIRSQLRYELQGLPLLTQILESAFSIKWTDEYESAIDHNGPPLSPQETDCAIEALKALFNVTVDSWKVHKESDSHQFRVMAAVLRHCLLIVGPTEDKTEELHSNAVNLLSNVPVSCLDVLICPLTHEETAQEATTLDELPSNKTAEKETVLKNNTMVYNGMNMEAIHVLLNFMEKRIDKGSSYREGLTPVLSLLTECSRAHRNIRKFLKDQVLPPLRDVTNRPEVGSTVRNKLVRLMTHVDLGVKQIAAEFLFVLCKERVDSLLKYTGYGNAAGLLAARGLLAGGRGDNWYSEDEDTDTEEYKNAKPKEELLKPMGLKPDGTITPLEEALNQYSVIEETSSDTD
UniProt O43353, whole entry, looked up: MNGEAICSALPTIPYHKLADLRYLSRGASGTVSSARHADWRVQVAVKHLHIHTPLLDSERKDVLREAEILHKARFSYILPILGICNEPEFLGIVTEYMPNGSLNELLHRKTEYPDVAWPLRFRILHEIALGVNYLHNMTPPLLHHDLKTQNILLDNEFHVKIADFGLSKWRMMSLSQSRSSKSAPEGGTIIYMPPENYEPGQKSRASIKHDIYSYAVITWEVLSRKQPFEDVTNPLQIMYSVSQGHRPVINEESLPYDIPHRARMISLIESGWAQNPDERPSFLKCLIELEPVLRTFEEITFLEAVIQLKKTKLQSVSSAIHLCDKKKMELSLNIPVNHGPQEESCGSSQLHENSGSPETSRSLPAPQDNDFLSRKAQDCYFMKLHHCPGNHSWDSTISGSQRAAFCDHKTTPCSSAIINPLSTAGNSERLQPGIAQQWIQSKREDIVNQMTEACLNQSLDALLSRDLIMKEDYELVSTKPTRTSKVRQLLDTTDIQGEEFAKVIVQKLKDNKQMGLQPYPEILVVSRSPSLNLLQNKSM
UniProt Q9H6T3, whole entry, looked up: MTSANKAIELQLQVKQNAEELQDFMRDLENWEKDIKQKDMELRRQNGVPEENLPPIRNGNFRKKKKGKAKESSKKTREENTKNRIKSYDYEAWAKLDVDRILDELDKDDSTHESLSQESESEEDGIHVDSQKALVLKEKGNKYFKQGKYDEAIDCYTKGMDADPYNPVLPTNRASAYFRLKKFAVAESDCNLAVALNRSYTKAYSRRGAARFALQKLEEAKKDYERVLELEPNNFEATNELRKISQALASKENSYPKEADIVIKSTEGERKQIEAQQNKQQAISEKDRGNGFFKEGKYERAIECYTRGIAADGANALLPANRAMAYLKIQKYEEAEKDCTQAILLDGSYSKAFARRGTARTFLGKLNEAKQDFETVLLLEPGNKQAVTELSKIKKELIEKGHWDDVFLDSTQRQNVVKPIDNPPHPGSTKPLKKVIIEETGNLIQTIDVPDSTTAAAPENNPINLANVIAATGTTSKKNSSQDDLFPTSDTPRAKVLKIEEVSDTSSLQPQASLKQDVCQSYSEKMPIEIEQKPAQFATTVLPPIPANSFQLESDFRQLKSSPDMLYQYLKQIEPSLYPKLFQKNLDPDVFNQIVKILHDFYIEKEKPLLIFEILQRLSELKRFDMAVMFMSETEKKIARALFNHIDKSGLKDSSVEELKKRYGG
UniProt P10155: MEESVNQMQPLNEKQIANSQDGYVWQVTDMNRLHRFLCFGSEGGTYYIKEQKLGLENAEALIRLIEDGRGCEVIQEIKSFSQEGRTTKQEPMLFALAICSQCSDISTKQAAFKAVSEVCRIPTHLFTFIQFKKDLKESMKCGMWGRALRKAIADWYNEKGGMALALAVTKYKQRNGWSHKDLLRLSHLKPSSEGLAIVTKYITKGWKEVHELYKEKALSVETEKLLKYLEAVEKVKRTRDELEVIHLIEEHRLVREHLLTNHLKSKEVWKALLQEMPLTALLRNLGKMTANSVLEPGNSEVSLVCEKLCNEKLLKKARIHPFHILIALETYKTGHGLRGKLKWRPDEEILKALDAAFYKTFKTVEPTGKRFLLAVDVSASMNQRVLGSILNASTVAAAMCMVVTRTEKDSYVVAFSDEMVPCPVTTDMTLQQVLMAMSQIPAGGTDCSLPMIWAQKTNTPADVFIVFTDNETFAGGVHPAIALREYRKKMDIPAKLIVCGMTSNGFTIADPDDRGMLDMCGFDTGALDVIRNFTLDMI
UniProt Q9H7B2: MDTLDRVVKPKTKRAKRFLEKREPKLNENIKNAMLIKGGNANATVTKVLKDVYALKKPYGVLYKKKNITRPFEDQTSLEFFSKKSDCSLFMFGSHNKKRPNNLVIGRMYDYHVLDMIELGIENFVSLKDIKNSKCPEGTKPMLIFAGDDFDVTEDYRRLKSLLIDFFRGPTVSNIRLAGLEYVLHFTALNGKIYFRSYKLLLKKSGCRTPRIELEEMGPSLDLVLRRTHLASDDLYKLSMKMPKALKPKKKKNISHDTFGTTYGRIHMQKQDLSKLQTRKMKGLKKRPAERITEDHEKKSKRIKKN
UniProt Q5EBL4: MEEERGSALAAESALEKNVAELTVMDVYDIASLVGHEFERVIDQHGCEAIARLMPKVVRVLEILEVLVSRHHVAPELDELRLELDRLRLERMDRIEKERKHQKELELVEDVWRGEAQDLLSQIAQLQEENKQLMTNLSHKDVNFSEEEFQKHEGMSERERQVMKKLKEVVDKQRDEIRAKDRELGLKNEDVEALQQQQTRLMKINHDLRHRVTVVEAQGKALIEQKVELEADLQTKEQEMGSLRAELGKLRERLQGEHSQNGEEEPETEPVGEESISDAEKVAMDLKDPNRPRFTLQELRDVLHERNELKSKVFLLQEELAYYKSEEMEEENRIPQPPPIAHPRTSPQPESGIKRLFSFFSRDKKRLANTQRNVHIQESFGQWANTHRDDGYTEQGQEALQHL
UniProt Q8IXI1, whole entry, looked up: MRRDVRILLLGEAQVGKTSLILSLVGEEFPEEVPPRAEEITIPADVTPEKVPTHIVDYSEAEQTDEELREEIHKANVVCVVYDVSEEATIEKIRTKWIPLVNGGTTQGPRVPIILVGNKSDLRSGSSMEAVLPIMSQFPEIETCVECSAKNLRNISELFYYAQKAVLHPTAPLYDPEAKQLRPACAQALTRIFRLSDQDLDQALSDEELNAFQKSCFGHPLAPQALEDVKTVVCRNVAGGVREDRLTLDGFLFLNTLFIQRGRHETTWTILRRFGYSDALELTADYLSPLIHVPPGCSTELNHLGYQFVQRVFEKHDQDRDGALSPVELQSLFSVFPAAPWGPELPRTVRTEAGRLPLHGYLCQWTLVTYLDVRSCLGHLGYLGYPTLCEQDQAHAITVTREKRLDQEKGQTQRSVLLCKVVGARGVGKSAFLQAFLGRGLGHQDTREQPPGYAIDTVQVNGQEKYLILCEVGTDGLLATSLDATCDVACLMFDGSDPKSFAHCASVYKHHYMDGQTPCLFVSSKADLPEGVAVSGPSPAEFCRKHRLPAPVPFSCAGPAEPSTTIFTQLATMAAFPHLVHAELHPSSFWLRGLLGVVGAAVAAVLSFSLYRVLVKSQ
UniProt Q9NTX7: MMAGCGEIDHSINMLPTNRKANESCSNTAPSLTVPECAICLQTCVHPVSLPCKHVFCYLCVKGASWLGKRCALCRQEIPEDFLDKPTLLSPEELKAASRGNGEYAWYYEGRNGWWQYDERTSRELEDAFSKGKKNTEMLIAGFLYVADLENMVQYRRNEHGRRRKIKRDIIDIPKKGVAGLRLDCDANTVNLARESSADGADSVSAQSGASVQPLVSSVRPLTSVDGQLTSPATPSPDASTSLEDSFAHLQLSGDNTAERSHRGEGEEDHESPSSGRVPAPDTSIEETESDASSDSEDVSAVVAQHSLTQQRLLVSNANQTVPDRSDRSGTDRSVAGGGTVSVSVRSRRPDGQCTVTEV
UniProt Q96EP0: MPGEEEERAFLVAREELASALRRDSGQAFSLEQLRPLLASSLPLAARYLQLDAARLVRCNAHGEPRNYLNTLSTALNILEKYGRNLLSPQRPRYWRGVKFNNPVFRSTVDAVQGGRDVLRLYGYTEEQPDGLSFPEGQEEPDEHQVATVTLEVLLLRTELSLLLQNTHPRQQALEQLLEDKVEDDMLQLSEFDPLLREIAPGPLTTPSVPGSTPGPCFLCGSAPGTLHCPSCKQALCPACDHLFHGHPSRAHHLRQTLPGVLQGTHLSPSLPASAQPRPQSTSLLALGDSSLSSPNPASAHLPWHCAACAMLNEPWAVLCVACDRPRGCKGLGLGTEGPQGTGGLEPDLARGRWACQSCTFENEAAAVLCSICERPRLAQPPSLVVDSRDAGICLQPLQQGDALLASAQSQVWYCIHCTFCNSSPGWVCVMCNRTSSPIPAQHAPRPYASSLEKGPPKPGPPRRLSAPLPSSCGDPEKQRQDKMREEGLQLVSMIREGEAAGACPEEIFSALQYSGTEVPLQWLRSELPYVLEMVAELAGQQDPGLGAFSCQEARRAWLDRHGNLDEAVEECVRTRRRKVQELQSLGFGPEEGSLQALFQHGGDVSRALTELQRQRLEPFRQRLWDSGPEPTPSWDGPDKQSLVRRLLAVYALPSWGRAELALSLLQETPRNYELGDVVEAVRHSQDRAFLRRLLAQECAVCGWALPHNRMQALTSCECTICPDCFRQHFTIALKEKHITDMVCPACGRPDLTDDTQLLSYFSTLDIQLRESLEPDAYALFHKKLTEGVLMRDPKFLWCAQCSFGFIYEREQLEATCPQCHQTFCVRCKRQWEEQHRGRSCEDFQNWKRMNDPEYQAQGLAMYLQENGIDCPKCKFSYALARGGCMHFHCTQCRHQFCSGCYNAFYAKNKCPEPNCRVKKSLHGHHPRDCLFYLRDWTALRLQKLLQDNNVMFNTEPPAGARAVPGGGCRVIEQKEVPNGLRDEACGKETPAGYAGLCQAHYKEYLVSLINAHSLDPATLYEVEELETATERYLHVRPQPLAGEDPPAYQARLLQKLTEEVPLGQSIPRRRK
UniProt Q9Y508: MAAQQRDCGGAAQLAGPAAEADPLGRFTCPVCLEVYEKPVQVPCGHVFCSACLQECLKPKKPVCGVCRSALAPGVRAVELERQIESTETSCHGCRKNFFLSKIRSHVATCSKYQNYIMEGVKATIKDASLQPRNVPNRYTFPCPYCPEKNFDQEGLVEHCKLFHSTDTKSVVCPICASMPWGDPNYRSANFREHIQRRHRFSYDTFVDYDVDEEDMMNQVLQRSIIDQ
UniProt P35244: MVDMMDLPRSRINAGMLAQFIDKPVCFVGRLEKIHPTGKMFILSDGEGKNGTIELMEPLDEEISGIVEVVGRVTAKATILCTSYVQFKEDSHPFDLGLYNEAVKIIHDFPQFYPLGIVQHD
UniProt Q8IYW5, whole entry, looked up: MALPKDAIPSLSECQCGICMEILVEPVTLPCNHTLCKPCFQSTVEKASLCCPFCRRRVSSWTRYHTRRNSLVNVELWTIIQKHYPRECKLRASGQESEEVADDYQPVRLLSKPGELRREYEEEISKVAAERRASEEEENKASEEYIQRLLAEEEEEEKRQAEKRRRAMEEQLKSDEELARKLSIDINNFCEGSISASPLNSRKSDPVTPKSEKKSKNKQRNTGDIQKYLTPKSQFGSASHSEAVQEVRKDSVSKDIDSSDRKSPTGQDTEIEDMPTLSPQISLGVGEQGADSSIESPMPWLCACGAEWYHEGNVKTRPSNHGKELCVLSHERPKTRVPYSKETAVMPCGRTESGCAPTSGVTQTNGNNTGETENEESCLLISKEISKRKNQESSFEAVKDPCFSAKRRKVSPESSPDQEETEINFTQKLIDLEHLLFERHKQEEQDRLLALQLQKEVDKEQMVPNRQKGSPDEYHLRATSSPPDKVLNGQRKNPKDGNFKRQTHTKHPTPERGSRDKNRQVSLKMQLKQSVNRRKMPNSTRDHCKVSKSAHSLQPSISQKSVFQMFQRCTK
UniProt Q9GZN7, whole entry, looked up: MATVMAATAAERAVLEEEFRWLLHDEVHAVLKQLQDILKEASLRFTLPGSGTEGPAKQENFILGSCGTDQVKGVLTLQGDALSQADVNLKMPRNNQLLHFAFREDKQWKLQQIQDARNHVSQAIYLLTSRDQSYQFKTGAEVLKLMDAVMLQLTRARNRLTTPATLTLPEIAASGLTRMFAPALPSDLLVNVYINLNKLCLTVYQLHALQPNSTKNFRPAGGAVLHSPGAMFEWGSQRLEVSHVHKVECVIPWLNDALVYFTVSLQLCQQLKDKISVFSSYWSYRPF

Assays:
Experiment in all cases: log2 fold change, soluble protein after heating vs DMSO (PISA); higher = thermal stabilisation; K562 lysate, 10 uM; active = over 0.2 and 3.5 SD of the protein, either way, in both replicates (recomputed)
nilotinib = compound: Cc1cn(-c2cc(NC(=O)c3ccc(C)c(Nc4nccc(-c5cccnc5)n4)c3)cc(C(F)(F)F)c2)cn1 [nilotinib]
Method in brief: (§1)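 K562 pellets were dounce-homogenised in PBS pH 7.4 containing 1 mM MgCl2, and the crude extract, at 1 mg/mL protein, was exposed to 10 μM compound for 30 min. Aliquots were heated for 3 min across 48°C-58°C, pooled, brought to 0.5% NP-40 at 4°C and spun at 21,000xg for 90 min, with the supernatant taken as soluble protein. TMTpro 16plex LC-MS/MS with equalised channel sums quantified that protein. Values are log-two fold changes in thermal stability relative to solvent controls, taken from duplicates.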

[1] = compound: Cc1nc(Nc2n[nH]c3c2CN(C(=O)N[C@H](CN(C)C)c2ccccc2)C3(C)C)c2sccc2n1
Method in brief: as §1

dasatinib = compound: Cc1nc(Nc2ncc(C(=O)Nc3c(C)cccc3Cl)s2)cc(N2CCN(CCO)CC2)n1 [dasatinib]
Method in brief: as §1

[2] = compound: Cc1ncc(-c2ccnc(Nc3ccc(S(C)(=O)=O)cc3)n2)n1C(C)C
Method in brief: as §1

[3] = compound: Cn1cc(-c2ccc3c(c2)CCN3C(=O)Cc2cccc(C(F)(F)F)c2)c2c(N)ncnc21
Method in brief: as §1

quisinostat = compound: Cn1cc(CNCC2CCN(c3ncc(C(=O)NO)cn3)CC2)c2ccccc21 [quisinostat]
Method in brief: as §1

tipifarnib = compound: Cn1cncc1[C@@](N)(c1ccc(Cl)cc1)c1ccc2c(c1)c(-c1cccc(Cl)c1)cc(=O)n2C [tipifarnib]
Method in brief: as §1

[4] = compound: NC(=O)Nc1cc(-c2cccc(F)c2)sc1C(=O)N[C@H]1CCCNC1
Method in brief: as §1

[5] = compound: NC(=O)c1cnc(N[C@@H]2CCCC[C@@H]2N)nc1Nc1cccc(-n2nccn2)c1
Method in brief: as §1

[6] = compound: NC1(c2ccc(-c3nc4ccn5c(=O)[nH]nc5c4cc3-c3ccccc3)cc2)CCC1
Method in brief: as §1

[7] = compound: NCC(=O)Nc1ccc(-n2nc(C(F)(F)F)cc2-c2ccc3c(ccc4ccccc43)c2)cc1
Method in brief: as §1

vorinostat = compound: O=C(CCCCCCC(=O)Nc1ccccc1)NO [vorinostat]
Method in brief: as §1

silmitasertib = compound: O=C(O)c1ccc2c(c1)nc(Nc1cccc(Cl)c1)c1ccncc12 [silmitasertib]
Method in brief: as §1

[8] = compound: O=C1NC(=O)C(c2cnc3ccccn23)=C1c1cn2c3c(cc(F)cc13)CN(C(=O)N1CCCCC1)CC2
Method in brief: as §1

entospletinib = compound: c1cn2cc(-c3ccc4cn[nH]c4c3)nc(Nc3ccc(N4CCOCC4)cc3)c2n1 [entospletinib]
Method in brief: as §1

Measured: log2 fold change

RNF181 (UniProt Q9P0P0)
active: entospletinib -0.24
inactive: nilotinib 0.023 | [1] 0.027 | dasatinib 0.013 | [2] 0.007 | [3] -0.004 | quisinostat -0.027 | tipifarnib -0.03 | [4] 0.006 | [5] -0.01 | [6] -0.023 | [7] -0.014 | vorinostat 0.101 | silmitasertib -0.019 | [8] -0.023

RIC8B isoform 1 (UniProt Q9NVN3)
inactive: nilotinib 0.007 | [1] -0.041 | dasatinib 0 | [2] -0.012 | [3] -0.068 | quisinostat 0.008 | tipifarnib 0.002 | [4] -0.02 | [5] -0.006 | [6] -0.022 | [7] 0.057 | vorinostat -0.071 | silmitasertib -0.002 | [8] -0.004 | entospletinib -0.085

RIPK2 (UniProt O43353)
inactive: nilotinib 0.068 | [1] 0.009 | dasatinib 0 | [2] 0.025 | [3] 0.077 | quisinostat -0.021 | tipifarnib -0.022 | [4] -0.036 | [5] -0.034 | [6] 0.006 | [7] 0 | vorinostat -0.054 | silmitasertib -0.023 | [8] 0.049 | entospletinib -0.06

RPAP3 (UniProt Q9H6T3)
inactive: nilotinib -0.011 | [1] 0.009 | dasatinib -0.023 | [2] 0.014 | [3] 0.009 | quisinostat -0.005 | tipifarnib 0 | [4] -0.004 | [5] 0.007 | [6] 0.019 | [7] 0.021 | vorinostat -0.11 | silmitasertib 0.012 | [8] -0.019 | entospletinib 0.006

RO60 (UniProt P10155)
inactive: nilotinib 0.006 | [1] 0.003 | dasatinib 0.04 | [2] -0.007 | [3] 0.01 | quisinostat 0.031 | tipifarnib 0.002 | [4] -0.012 | [5] -0.014 | [6] 0.011 | [7] -0.017 | vorinostat 0.08 | silmitasertib -0.024 | [8] -0.015 | entospletinib 0.008

RPF2 (UniProt Q9H7B2)
inactive: nilotinib 0.05 | [1] -0.095 | dasatinib 0.01 | [2] -0.007 | [3] 0.001 | quisinostat 0.042 | tipifarnib 0.012 | [4] 0.045 | [5] -0.017 | [6] -0.064 | [7] -0.037 | vorinostat -0.017 | silmitasertib -0.101 | [8] 0.03 | entospletinib -0.022

RILPL1 (UniProt Q5EBL4)
inactive: nilotinib 0.015 | [1] -0.014 | dasatinib 0.002 | [2] -0.014 | [3] 0.031 | quisinostat -0.023 | tipifarnib -0.007 | [4] 0.002 | [5] 0.021 | [6] -0.004 | [7] 0.026 | vorinostat 0.073 | silmitasertib 0.037 | [8] -0.01 | entospletinib 0.038

RPL36A (UniProt P83881)
inactive: nilotinib 0 | [1] -0.01 | dasatinib -0.055 | [2] 0.025 | [3] -0.108 | quisinostat -0.011 | tipifarnib 0.018 | [4] -0.044 | [5] -0.013 | [6] -0.04 | [7] 0.016 | vorinostat 0.132 | silmitasertib 0 | [8] 0.047 | entospletinib 0.019

RHOT2 (UniProt Q8IXI1)
inactive: nilotinib -0.023 | [1] -0.033 | dasatinib -0.027 | [2] 0.042 | [3] 0.002 | quisinostat -0.021 | tipifarnib -0.028 | [4] 0.026 | [5] 0.025 | [6] 0 | [7] 0.039 | vorinostat 0.037 | silmitasertib 0.048 | [8] 0.007 | entospletinib -0.014

RNF146 (UniProt Q9NTX7)
inactive: nilotinib -0.016 | [1] 0.023 | dasatinib 0.07 | [2] 0.036 | [3] -0.014 | quisinostat 0.005 | tipifarnib 0.026 | [4] -0.013 | [5] -0.094 | [6] 0.068 | [7] -0.021 | vorinostat -0.007 | silmitasertib 0.008 | [8] 0.016 | entospletinib 0.009

RNF31 (UniProt Q96EP0)
inactive: nilotinib -0.069 | [1] 0.01 | dasatinib 0.031 | [2] -0.046 | [3] 0.024 | quisinostat 0.018 | tipifarnib 0.057 | [4] 0.018 | [5] 0.086 | [6] 0.006 | [7] 0.013 | vorinostat -0.024 | silmitasertib -0.004 | [8] 0.006 | entospletinib -0.056

RNF114 (UniProt Q9Y508)
inactive: nilotinib 0.022 | [1] 0.022 | dasatinib -0.048 | [2] 0.021 | [3] -0.095 | quisinostat 0.051 | tipifarnib 0.005 | [4] -0.035 | [5] -0.037 | [6] -0.047 | [7] -0.001 | vorinostat 0.008 | silmitasertib 0.011 | [8] -0.007 | entospletinib -0.019

RILP (UniProt Q96NA2)
inactive: nilotinib 0.023 | [1] -0.018 | dasatinib -0.015 | [2] 0.009 | [3] -0.018 | quisinostat 0.015 | tipifarnib 0.036 | [4] -0.017 | [5] -0.008 | [6] 0.031 | [7] 0.01 | vorinostat 0.093 | silmitasertib 0.021 | [8] -0.01 | entospletinib -0.017

RPA3 (UniProt P35244)
inactive: nilotinib 0.011 | [1] -0.006 | dasatinib 0.086 | [2] 0.026 | [3] -0.009 | quisinostat 0.001 | tipifarnib 0.04 | [4] -0.035 | [5] -0.02 | [6] -0.029 | [7] -0.118 | vorinostat 0.097 | silmitasertib -0.011 | [8] -0.032 | entospletinib 0.032

RNF168 (UniProt Q8IYW5)
inactive: nilotinib 0.144 | [1] 0.085 | dasatinib 0.064 | [2] -0.186 | [3] 0.006 | quisinostat -0.019 | tipifarnib 0.016 | [4] -0.009 | [5] -0.02 | [6] 0.018 | [7] 0.056 | vorinostat -0.313 | silmitasertib 0.025 | [8] -0.046 | entospletinib 0.042

RPL34 (UniProt P49207)
inactive: nilotinib 0.007 | [1] -0.027 | dasatinib -0.019 | [2] -0.018 | [3] 0.004 | quisinostat -0.034 | tipifarnib -0.014 | [4] -0.022 | [5] -0.023 | [6] -0.006 | [7] 0.006 | vorinostat 0.097 | silmitasertib 0.027 | [8] -0.026 | entospletinib -0.016

RPL13 (UniProt P26373)
inactive: nilotinib -0.012 | [1] 0.002 | dasatinib 0.023 | [2] -0.027 | [3] -0.013 | quisinostat 0.117 | tipifarnib 0.01 | [4] -0.015 | [5] -0.021 | [6] -0.01 | [7] 0.002 | vorinostat 0.129 | silmitasertib 0.016 | [8] 0.011 | entospletinib 0

RPL10A (UniProt P62906)
inactive: nilotinib 0.024 | [1] -0.025 | dasatinib 0.02 | [2] -0.014 | [3] 0.012 | quisinostat 0.004 | tipifarnib 0.014 | [4] 0.012 | [5] -0.02 | [6] 0.025 | [7] 0.015 | vorinostat 0.132 | silmitasertib 0.002 | [8] 0.034 | entospletinib 0.009

ROGDI (UniProt Q9GZN7)
inactive: nilotinib -0.032 | [1] 0.044 | dasatinib -0.187 | [2] -0.017 | [3] 0.176 | quisinostat 0.114 | tipifarnib -0.102 | [4] 0.027 | [5] -0.151 | [6] -0.145 | vorinostat -0.043 | silmitasertib 0.12 | [8] 0.046

Taken from the entries so far (five entries):
RPA3 (UniProt P35244)
inactive: nilotinib 0.011 | [1] -0.006 | dasatinib 0.086 | [2] 0.026 | [3] -0.009 | quisinostat 0.001 | tipifarnib 0.04 | [4] -0.035 | [5] -0.02 | [6] -0.029 | [7] -0.118 | vorinostat 0.097 | silmitasertib -0.011 | [8] -0.032 | entospletinib 0.032

RNF168 (UniProt Q8IYW5)
inactive: nilotinib 0.144 | [1] 0.085 | dasatinib 0.064 | [2] -0.186 | [3] 0.006 | quisinostat -0.019 | tipifarnib 0.016 | [4] -0.009 | [5] -0.02 | [6] 0.018 | [7] 0.056 | vorinostat -0.313 | silmitasertib 0.025 | [8] -0.046 | entospletinib 0.042

RPL34 (UniProt P49207)
inactive: nilotinib 0.007 | [1] -0.027 | dasatinib -0.019 | [2] -0.018 | [3] 0.004 | quisinostat -0.034 | tipifarnib -0.014 | [4] -0.022 | [5] -0.023 | [6] -0.006 | [7] 0.006 | vorinostat 0.097 | silmitasertib 0.027 | [8] -0.026 | entospletinib -0.016

RPL13 (UniProt P26373)
inactive: nilotinib -0.012 | [1] 0.002 | dasatinib 0.023 | [2] -0.027 | [3] -0.013 | quisinostat 0.117 | tipifarnib 0.01 | [4] -0.015 | [5] -0.021 | [6] -0.01 | [7] 0.002 | vorinostat 0.129 | silmitasertib 0.016 | [8] 0.011 | entospletinib 0

RPL10A (UniProt P62906)
inactive: nilotinib 0.024 | [1] -0.025 | dasatinib 0.02 | [2] -0.014 | [3] 0.012 | quisinostat 0.004 | tipifarnib 0.014 | [4] 0.012 | [5] -0.02 | [6] 0.025 | [7] 0.015 | vorinostat 0.132 | silmitasertib 0.002 | [8] 0.034 | entospletinib 0.009

Following part

RPL3 (UniProt P39023)
inactive: nilotinib 0.006 | [1] -0.006 | dasatinib 0.032 | [2] -0.01 | [3] 0.024 | quisinostat 0.156 | tipifarnib 0.012 | [4] 0 | [5] -0.011 | [6] 0.019 | [7] -0.002 | vorinostat 0.064 | silmitasertib 0.011 | [8] 0.01 | entospletinib 0.009

RPL11 (UniProt P62913)
inactive: nilotinib -0.011 | [1] 0.021 | dasatinib 0.004 | [2] 0.026 | [3] -0.022 | quisinostat -0.105 | tipifarnib -0.02 | [4] 0.001 | [5] 0.027 | [6] -0.03 | [7] 0 | vorinostat -0.076 | silmitasertib 0.059 | [8] -0.011 | entospletinib -0.026
